The values below come from publication PMC4731865 (Nature chemical biology, 2015).

One experiment concerns postfusion RSV F. Particulars: ITC, control. (In general: Isothermal titration calorimetry measures the heat released or taken up as one component is titrated into another.)
Experiment [1] addresses prefusion RSV F (DS-Cav1) (Human respiratory syncytial virus A, UniProt P03420, I379V/M447V/S155C/S190F/S290C/V207L). The class given is binding, RSV strain A2. Particulars: ITC, 25 °C, PBS 1% DMSO; mean ± s.d. (n = 2).

The Kd is the free concentration of one partner at which half of the binding sites on the other are occupied at equilibrium, for simple one-to-one binding. The low end stands for higher affinity, the high end for lower affinity.

For `Cc1ccc(CCCO)c(NCc2ccc3nc(NCCCN4CCOCC4)n(Cc4nc(C)ccc4O)c3c2)c1` [TMC-353121], the “Binding to postfusion RSV F” value with postfusion RSV F was “no binding was detected”. In experiment [1], the Kd was 8.7 ± 10 nM, the “Stoichiometry of fusion inhibitor to trimeric prefusion RSV F” value is 0.9 ± 0.014, the ΔH is -16 ± 0.0 kcal/mol and the “−TΔS” value is reported as 4.8 ± 1.3 kcal/mol.
